Experimental data as given in article doi:10.1101/2021.04.13.439655.
No constants are given. Whether binding was seen depends on the method and setting.

Tests used:
[1] = target: T1, full-length Smad4 protein (Smad4FL), Q13485; test: native MS; conditions: remark: other sources report otherwise
T1 chain: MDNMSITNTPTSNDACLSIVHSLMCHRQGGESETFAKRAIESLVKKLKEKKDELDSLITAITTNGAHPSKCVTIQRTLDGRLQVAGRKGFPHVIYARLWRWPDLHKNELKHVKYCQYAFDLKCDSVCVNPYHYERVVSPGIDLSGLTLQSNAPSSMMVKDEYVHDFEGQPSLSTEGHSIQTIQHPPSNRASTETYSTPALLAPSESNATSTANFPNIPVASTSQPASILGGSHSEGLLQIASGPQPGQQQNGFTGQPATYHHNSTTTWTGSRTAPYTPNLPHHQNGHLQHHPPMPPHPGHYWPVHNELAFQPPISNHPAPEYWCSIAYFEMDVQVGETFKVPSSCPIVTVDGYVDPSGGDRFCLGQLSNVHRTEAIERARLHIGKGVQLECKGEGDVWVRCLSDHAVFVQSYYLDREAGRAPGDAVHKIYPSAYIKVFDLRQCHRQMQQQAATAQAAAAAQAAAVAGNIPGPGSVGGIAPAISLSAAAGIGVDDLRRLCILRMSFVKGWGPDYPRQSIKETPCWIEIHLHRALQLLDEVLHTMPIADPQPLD

[2] = target: T1, full-length Smad4 protein (Smad4FL), …; test: SAXS with ensemble optimization method; conditions: remark: other sources report otherwise

binding [1]: no binding
binding [2]: no binding
B1: full-length Smad4 protein (Smad4FL), Q13485 1-552 (protein)
chain: T1 chain
